B1: PR3121 (antibody, human IgG1, kappa, V domains shown)
VH: EVQLVQSGAEVKKPGSSVKVSCKASGYTFSIYWMHWVRQAPGQGLEWIGMIHPNSGSTNYNEKFKSRATLTVDKSTSTAYMELSSLRSEDTAVYYCARGGNYVAMDYWGQGTLVTVSS
VL: DIQMTQSPSSLSASVGDRVTITCTASSSVSSSYLHWYQQKPGKAPKLLIYSTSNLASGVPSRFSGSGSGTDFTLTISSLQPEDFATYYCHQYHRSLTFGGGTKVEIKR
B2: PR3123 (antibody, human IgG1, kappa, V domains shown)
VH: B1 VH
VL: B1 VL with M4L, I21M, A44S, L48W, F72Y
B3: cAb314 (Fc fusion, not shown: a dimerising Fc or GST)
VHH: HVQLVESGGGSVQAGGSLRLSCAVSGFTSSRGWMAWFRQAPGKEREGVAVIGRRSGDIYYADSLKGRFTISHDSTENTLYLQMNNLKPEDTATYYCAVGDQAGHVLTSSPYRYWGQGTQVTVSS
B4: cAb025 (Fc fusion, not shown: a dimerising Fc or GST)
VHH: EVQLVESGGGSVQPGGSLRLSCEASGLTYNKDCMAWFRQAPGKEREGVAIINGVGRTRYADSVKGRFTISKDNAKNTLYLQMNNLKPEDTAMYYCAAQRASSSCGSLSRAWYDYWGRGTQVTVSS

Chains of the proteins cited; added tags and fusions are not shown. Lines headed by an entry give the natural chain unless they say otherwise; changes in a name come on top.
UniProt Q53EL9: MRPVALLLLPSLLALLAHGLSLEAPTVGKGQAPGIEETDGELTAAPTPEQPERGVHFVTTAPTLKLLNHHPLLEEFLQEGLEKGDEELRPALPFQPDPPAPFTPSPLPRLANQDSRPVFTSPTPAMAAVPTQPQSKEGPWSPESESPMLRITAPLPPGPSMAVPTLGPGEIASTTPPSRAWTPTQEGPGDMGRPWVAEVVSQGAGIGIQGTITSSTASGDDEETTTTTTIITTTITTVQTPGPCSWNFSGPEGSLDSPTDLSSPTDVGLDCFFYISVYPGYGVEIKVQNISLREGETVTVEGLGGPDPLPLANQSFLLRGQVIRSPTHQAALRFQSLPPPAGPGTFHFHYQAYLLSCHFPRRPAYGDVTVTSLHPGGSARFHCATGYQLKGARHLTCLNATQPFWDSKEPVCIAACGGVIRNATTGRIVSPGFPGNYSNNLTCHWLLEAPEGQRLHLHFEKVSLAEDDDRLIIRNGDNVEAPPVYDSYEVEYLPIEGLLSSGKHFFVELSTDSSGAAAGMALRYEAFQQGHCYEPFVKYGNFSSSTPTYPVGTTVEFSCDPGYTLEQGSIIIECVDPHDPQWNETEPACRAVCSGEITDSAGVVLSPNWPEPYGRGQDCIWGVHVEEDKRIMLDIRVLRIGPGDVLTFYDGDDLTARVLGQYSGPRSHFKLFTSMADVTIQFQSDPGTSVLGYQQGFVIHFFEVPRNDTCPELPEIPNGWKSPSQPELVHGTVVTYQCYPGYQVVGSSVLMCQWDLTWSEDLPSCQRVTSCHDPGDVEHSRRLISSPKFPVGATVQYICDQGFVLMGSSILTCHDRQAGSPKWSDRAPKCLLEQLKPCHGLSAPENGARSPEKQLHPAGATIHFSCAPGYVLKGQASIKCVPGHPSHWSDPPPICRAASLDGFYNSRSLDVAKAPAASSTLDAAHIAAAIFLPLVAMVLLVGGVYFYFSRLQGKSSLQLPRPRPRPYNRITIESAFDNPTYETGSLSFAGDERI

Substitutions are numbered along the chain they refer to. Results are given in words; binding and its absence hold for the method and conditions named. Some results given as binding are weak or reduced against the parent protein; the word gives no strength.

The target in the experiment is human SEZ6 expressed on stably transfected CHO-K1 cells (human) (UniProt Q53EL9). Description: flow cytometry on SEZ6-expressing CHO-K1 cells. On the technique in general: A flow cytometer gives signals particle by particle.
For the molecule B1, the binding result is given as “binds”. For B2 the value was “binds”. As for B3, the binding entry is “binds”.

Consider B4, for which the binding result was “binds”.

For the origin of these results see patent EP4714971A1.
